Source: publication PMC12431657, “Discovery and mechanistic insights of dibenzoylmethane as a broad spectrum inhibitor of coronavirus” (PLOS Pathogens, 2025)
Structures can show the parent of a compound that is named as a salt. Where two headings read alike, the source gives them in different places. The campaign covered roughly 3,300 compounds. About 95 (3%) showed an effect of 50% or more. The list shows a part of the results.

Test system: HCoV-229E
Design: species or system Huh-7; HTS, protection from HCoV-229E induced cell death, luminescent cell viability (CellCounting-Lite 2.0), inhibition rate
Details: 24 h post infection, 1 h compound pre-incubation, 10 µM, inhibitor

CCCCCCCCCCCCCCCc1cc(O)cc(O)c1 [5-Pentadecylresorcinol]
229E Inhibition rate: 51.7%

O=C(O)CC(O)(CC(=O)O)C(=O)O [Sodium citrate (dihydrate)]
229E Inhibition rate (229E Inhibition rate, 24 h): 0%

C/C1=C\CCC2=C[C@@H](OC2=O)c2c(C)coc2C1 [Linderalactone]
229E Inhibition rate: 9.2%

COc1ccc(CO)cc1OC [Veratryl alcohol]
229E Inhibition rate: 10.7%

CC1(C)COC(=O)[C@@H]1O [(R)-3-Hydroxy-4,4-dimethyldihydrofuran-2(3H)-one]
229E Inhibition rate: 19%

CC(C)=CCC[C@](C)(O[C@@H]1O[C@H](CO[C@@H]2OC[C@@H](O)[C@H](O)[C@H]2O)[C@@H](O)[C@H](O)[C@H]1O)[C@H]1CC[C@]2(C)[C@@H]1[C@H](O)C[C@@H]1[C@@]3(C)CC[C@H](O[C@@H]4O[C@H](CO)[C@@H](O)[C@H](O)[C@H]4O[C@@H]4O[C@H](CO)[C@@H](O)[C@H](O)[C@H]4O)C(C)(C)[C@@H]3CC[C@]12C [Ginsenoside Rb3]
229E Inhibition rate: 8%

CCCCC/C=C\C/C=C\CCCCCCCCO [Linoleyl alcohol]
229E Inhibition rate: 42.1%

CO[C@H]1C[C@H](O[C@H]2CC[C@@]3(C)[C@H](CC[C@@H]4[C@@H]3CC[C@]3(C)[C@@H](C5=CC(=O)OC5)[C@@H](OC(C)=O)C[C@]43O)C2)O[C@@H](C)[C@@H]1O [Oleandrin]
229E Inhibition rate: 9.1%

C=C(C)[C@@H]1CC[C@]2(C(=O)O[C@@H]3O[C@H](CO[C@@H]4O[C@H](CO)[C@@H](O[C@@H]5O[C@@H](C)[C@H](O)[C@@H](O)[C@H]5O)[C@H](O)[C@H]4O)[C@@H](O)[C@H](O)[C@H]3O)CC[C@]3(C)[C@H](CC[C@@H]4[C@@]5(C)CC[C@H](O[C@@H]6OC[C@H](O)[C@H](O)[C@H]6O[C@@H]6O[C@@H](C)[C@H](O)[C@@H](O)[C@H]6O)[C@@](C)(CO)[C@@H]5CC[C@]43C)[C@@H]12 [Pulchinenoside C]
229E Inhibition rate: 12.2%

O=C(/C=C/c1ccc(O)c(O)c1)O[C@@H](C(=O)O)[C@@H](O)C(=O)O [Caftaric acid]
229E Inhibition rate: 12.1%

COc1ccc(CCC(=O)c2c(O)cc(O[C@@H]3O[C@H](CO)[C@@H](O)[C@H](O)[C@H]3O[C@@H]3O[C@@H](C)[C@H](O)[C@@H](O)[C@H]3O)cc2O)cc1O [Neohesperidin dihydrochalcone]
229E Inhibition rate: 0%

CCCCC/C=C\C/C=C\C/C=C\C/C=C\CCCC(=O)O[C@H]1CC[C@@]2(C)C(=CC[C@H]3[C@@H]4CC[C@H]([C@H](C)CCCC(C)C)[C@@]4(C)CC[C@@H]32)C1 [Cholesteryl arachidonate]
229E Inhibition rate: 31.7%

CC(C)=CCC[C@@H](C)[C@@H]1CC[C@]2(C)C3=C(CC[C@@]12C)[C@@]1(C)CC[C@H](O)C(C)(C)[C@@H]1CC3 [Euphol]
229E Inhibition rate: 11.3%

CCCCCCCC(=O)c1c(O)cc(O)cc1CC(=O)OCC [Cytosporone B]
229E Inhibition rate: 42.9%

COC(=O)[C@H]1[C@H]2C[C@H]3c4[nH]c5ccccc5c4CCN3C[C@H]2CC[C@@H]1O [Rauwolscine (hydrochloride)]
229E Inhibition rate: 43.9%

CC(C)CCC[C@](C)(O)[C@H]1CC[C@H]2[C@@H]3CC=C4C[C@@H](O)CC[C@]4(C)[C@H]3CC[C@@]21C [20(S)-Hydroxycholesterol]
229E Inhibition rate: 57%

CC(=O)N[C@@H](CC(N)=O)C(=O)O [(S)-2-acetamido-4-amino-4-oxobutanoic acid]
229E Inhibition rate: 14.8%

C[C@H]1[C@H]2CC[C@H]3[C@@H]4CC=C5C[C@@H](N(C)C)CC[C@]5(C)[C@H]4CC[C@]23CN1C [Conessine]
229E Inhibition rate: 41.8%

O=C(O)C1CCCCC1 [Cyclohexanecarboxylic acid]
229E Inhibition rate: 11.6%

COc1cc2ccc(=O)oc2cc1OC [Scoparone]
229E Inhibition rate: 12%

O=C(O)c1cc(O)ccc1O [2,5-Dihydroxybenzoic acid]
229E Inhibition rate: 16.7%

O=C(/C=C/c1ccc(O)c(O)c1)c1ccc(O)c(O)c1O [Okanin]
229E Inhibition rate: 16.1%

CCCCCCCCC1=C(CCCCCCCC(=O)O)C1 [Sterculic acid]
229E Inhibition rate: 20%

CC(CCC(=O)O)CC(=O)O (centres unmarked) [3-Methyladipic acid]
229E Inhibition rate: 15%

C[n+]1cccc(C(=O)[O-])c1 [Trigonelline]
229E Inhibition rate (229E Inhibition rate, 24 h): 7.5%

C[C@H](O)[C@H](O)[C@H]1CNc2nc(N)[nH]c(=O)c2N1 [Tetrahydrobiopterin]
229E Inhibition rate: 16.1%

CC1=CC[C@@]23C[C@@H]1C(C)(C)[C@@H]2CC[C@H]3C [(-)-Cedrene]
229E Inhibition rate: 15.2%

C[C@H]1CC[C@@H](C(C)(C)O)CC2=C1CC[C@@H]2C [Guaiol]
229E Inhibition rate: 7.2%

CC[C@H](CC[C@@H](C)[C@H]1CC[C@H]2[C@@H]3CC=C4C[C@@H](O[C@@H]5O[C@H](CO)[C@@H](O)[C@H](O)[C@H]5O)CC[C@]4(C)[C@H]3CC[C@]12C)C(C)C [Daucosterol]
229E Inhibition rate: 5.6%

CC[C@]1(O)C[C@@H]2CN(CCc3c([nH]c4ccccc34)[C@@](C(=O)OC)(c3cc4c(cc3OC)N(C)[C@H]3[C@@](O)(C(=O)OC)[C@H](OC(C)=O)[C@]5(CC)C=CCN6CC[C@]43[C@@H]65)C2)C1 [Vinblastine (sulfate)]
229E Inhibition rate: 30.6%

Nc1nc(=O)n([C@H]2C[C@H](O)[C@@H](CO)O2)cc1CO [5-Hydroxymethyl-2’-deoxycytidine]
229E Inhibition rate: 0%

C[C@H]1CCCC(=O)CCCCCc2cc(O)cc(O)c2C(=O)O1 [Zearalanone]
229E Inhibition rate: 44.1%

O=C(/C=C/c1ccc(O)cc1)c1ccccc1 [4'-Hydroxychalcone]
229E Inhibition rate (229E Inhibition rate, 24 h): 41.2%

CC(=O)NCCCCCN [N-(5-Aminopentyl)acetamide]
229E Inhibition rate: 61.9%

NCCCCCN [Pentane-1,5-diamine (dihydrochloride)]
229E Inhibition rate: 26.5%

CC(=O)NCCc1ccc(O)c(O)c1 [N-acetyldopamine]
229E Inhibition rate: 7.1%

CSCCC(O)C(=O)O (centres unmarked) [Calcium 2-hydroxy-4-(methylthio)butanoate]
229E Inhibition rate: 18.3%

COc1cc(C(=O)O)cc(O)c1O [3-O-Methylgallic acid]
229E Inhibition rate: 30.8%

C[C@@H]1CC[C@@]2(OC1)O[C@H]1C[C@H]3[C@@H]4CC[C@H]5C[C@@H](O)[C@H](O)C[C@]5(C)[C@H]4CC[C@]3(C)[C@H]1[C@@H]2C [Gitogenin]
229E Inhibition rate: 4.9%

O=C(O)/C=C/c1ccccc1O [2-Hydroxycinnamic acid]
229E Inhibition rate: 20.2%

CCCCCCCCO [1-Octanol]
229E Inhibition rate: 13.9%

OC1OC[C@@H](O)[C@H](O)[C@@H]1O (stereo partly drawn) [D-Lyxose]
229E Inhibition rate: 44.8%

C[C@H]1[C@H](C)CC[C@]2(C)CC[C@]3(C)C(=CC(=O)[C@@H]4[C@@]5(C)CC[C@@H](O)[C@](C)(C(=O)O)[C@@H]5CC[C@]43C)[C@H]12 [11-Keto-beta-boswellic acid]
229E Inhibition rate: 18.8%

CC(=O)O[C@@]12CO[C@@H]1C[C@H](O)[C@@]1(C)C(=O)[C@H](O)C3=C(C)[C@@H](O)C[C@@](O)([C@@H](OC(=O)c4ccccc4)[C@H]21)C3(C)C [10-Deacetylbaccatin III]
229E Inhibition rate: 13.7%

COc1cc(CC(=O)O)ccc1O [Homovanillic acid]
229E Inhibition rate: 16.1%

COc1cc(/C=C/C(=O)O[C@H]2[C@H](O)[C@@H](CO)O[C@@]2(CO)O[C@H]2O[C@H](CO)[C@@H](O)[C@H](O)[C@H]2O)cc(OC)c1OC [Glomeratose A]
229E Inhibition rate: 12.1%

COc1c(OC)c2occc2c2oc(=O)ccc12 [Pimpinellin]
229E Inhibition rate: 18.3%

CC(C)=CCC/C(C)=C/COc1ccc2ccc(=O)oc2c1 [Auraptene]
229E Inhibition rate: 10.5%

O=C1c2ccccc2C(=O)c2cc(CO)ccc21 [2-(Hydroxymethyl)anthraquinone]
229E Inhibition rate: 22.9%

C[C@]1(C(=O)O)CCC[C@]2(C)c3cc(O)ccc3CC[C@@H]12 [Podocarpic acid]
229E Inhibition rate: 23.2%

CNCC(O)c1ccc(O)cc1 (centres unmarked) [Synephrine]
229E Inhibition rate (229E Inhibition rate, 24 h): 0%

CO[C@H]1C(=O)[C@]2(C)[C@@H](OC)C[C@H]3OC[C@@]3(OC(C)=O)[C@H]2[C@H](OC(=O)c2ccccc2)[C@]2(O)C[C@H](OC(=O)[C@H](O)[C@@H](NC(=O)OC(C)(C)C)c3ccccc3)C(C)=C1C2(C)C [Cabazitaxel]
229E Inhibition rate: 12.8%

C[C@@H]1CC[C@@]2(OC1)O[C@H]1C[C@H]3[C@@H]4CC=C5C[C@@H](O[C@@H]6O[C@H](CO)[C@@H](O)[C@H](O[C@@H]7O[C@H](CO)[C@@H](O)[C@H](O)[C@H]7O)[C@H]6O[C@@H]6O[C@@H](C)[C@H](O)[C@@H](O)[C@H]6O)CC[C@]5(C)[C@H]4CC[C@]3(C)[C@H]1[C@@H]2C [Gracillin]
229E Inhibition rate: 2.8%

CCCCCc1ccco1 [2-Pentylfuran]
229E Inhibition rate: 25.3%

COc1cc2ccc(=O)oc2c(O)c1OC [Fraxidin]
229E Inhibition rate: 12.9%

CC(=O)NCCCC[C@H](N)C(=O)O [Nepsilon-Acetyl-L-lysine]
229E Inhibition rate: 0%

COc1cc2c(cc1OC)[C@H]1[C@@H](C)c3ccc(OC)c(OC)c3CN1CC2 [Corydaline]
229E Inhibition rate: 6.8%

CC1(C)C=Cc2c(ccc(C(=O)/C=C/c3ccc(O)cc3)c2O)O1 [4-Hydroxylonchocarpin]
229E Inhibition rate (229E Inhibition rate, 24 h): 14.6%

COC(=O)[C@@]12OC[C@]34[C@H]([C@@H](O)[C@@H]1O)[C@@]1(C)CC(=O)C(O)=C(C)[C@@H]1C[C@H]3OC(=O)[C@H](OC(=O)CC(C)C)[C@@H]24 [Bruceine A]
229E Inhibition rate: 3.6%
